In the supplement of paper PMC10403144:
This is one part of the list.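 Rule for the calls: active = mitochondrial OCR inhibition above 30% at 1 uM; inactive = 30% or less.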 Most values come without repeats; read them as rough.

Test system: Toxoplasma gondii RH tachyzoites
Test: inhibition of mitochondrial O2 consumption rate (% inhibition (relative to pre-injection OCR and atovaquone/antimycin A control)); higher = stronger ETC inhibition
Details: 1 µM; injection port (sequential injection order): A

SMILES | inhibition of mitochondrial O2 consumption rate
COc1ccc(N(CCc2cccc(C)n2)C(C)=O)cc1 | inactive: -6.28
Cc1cc(C)n(-c2ccc(NC(=O)C3CCN(Cc4cnc(C)s4)CC3)cc2)n1 | inactive: -14.1
CC(=O)NC[C@H]1CN(c2ccc(N3CCSCC3)c(F)c2)C(=O)O1 | inactive: -1.02
COc1cc(OC)cc(C(=O)NCC2Cc3cc(Cl)cc(-c4ccncc4)c3O2)c1 (stereo not drawn) | inactive: -9.69
CCc1nc2ccc(C(=O)NCc3ccc4c(c3)OCO4)cn2c1N(C)Cc1cccs1 | inactive: 0.892
O=C(Nc1ccc(F)c(-c2nc3cc(-c4ccccc4)cnc3[nH]2)c1)N1CCCC1 | inactive: -0.642
CNC(=O)C1Cc2c([nH]c3cc(Cl)ccc23)C2(CCN(CCc3ccccc3)CC2)N1 (stereo not drawn) | inactive: -13.4
NCC(=O)N1CCn2c(nc(-c3ccccc3)c2Nc2ccc3c(c2)OCO3)C1 | inactive: -4.16
O=C(COc1cccc(F)c1)Nc1nc(-c2ccccn2)cs1 | inactive: 2.76
COc1nc2ccc(Br)cc2cc1[C@@H](c1ccccc1)[C@@](O)(CCN(C)C)c1cccc2ccccc12 | inactive: -7.33
CCc1nc2ccccc2n1CC(O)COc1cc(C)ccc1Cl (stereo not drawn) | inactive: -14.2
COc1ccc(Nc2ccccc2NC(=O)c2ccc(O)nc2)cc1 | inactive: -2.35
FC(F)(F)c1cnc(Sc2nnc(-c3ccncc3)o2)c(Cl)c1 | inactive: -5.94
O=C(Nc1cccc(-c2ccc(NCCCN3CCCC3)nc2)c1)c1ccccc1 | inactive: 2.77
CN1CCN(c2nccc3nc(-c4ccc(F)c(F)c4)[nH]c23)CC1 | inactive: 0.12
Cc1ccc(S(=O)(=O)n2cc(-c3ccnc(N)c3)c3cc(Br)cnc32)cc1 | inactive: -7.7

Same assay, conditions: 1 µM; injection port (sequential injection order): B

SMILES | inhibition of mitochondrial O2 consumption rate
CO[C@@H](C(=O)N1Cc2[nH]nc(NC(=O)c3ccc(N4CCN(C)CC4)cc3)c2C1)c1ccccc1 | inactive: -5.6
C[C@@H]1[C@H](O)[C@@H](C)/C=C/C=C/C=C/C=C/C=C/C=C/C=C/[C@H](O[C@@H]2O[C@H](C)[C@@H](O)[C@H](N)[C@@H]2O)C[C@@H]2O[C@](O)(C[C@@H](O)C[C@@H](O)[C@H](O)CC[C@@H](O)C[C@@H](O)CC(=O)O[C@H]1C)C[C@H](O)[C@H]2C(=O)O | inactive: -9.51
COC(=O)Nc1nc2cc(C(=O)c3ccccc3)ccc2[nH]1 | inactive: -6.56
Cc1cc2ccccc2n1CC(=O)N1CC(C(=O)N2CCCCC2)Oc2ccccc21 (stereo not drawn) | inactive: -3.2
COc1ccccc1CNC(=O)c1cc(C2CC2)nc2c1cnn2C(C)C | inactive: 6.73
O[C@@H](c1cc(C(F)(F)F)nc2c(C(F)(F)F)cccc12)[C@H]1CCCCN1 | inactive: -1.24
O=C1Nc2ccc(Br)cc2C12NCCc1c2[nH]c2ccccc12 (stereo not drawn) | inactive: -8.28
CC(=O)Nc1ccc(NC(=O)c2cc(-c3cc(Cl)ccc3O)[nH]n2)cc1 | inactive: -1.57
Cc1noc(C)c1C(=O)N1CCCC(c2[nH]c3c(C)cccc3c2-c2ccncc2)C1 (stereo not drawn) | inactive: -2.31
CC(=O)Oc1ccccc1C(=O)Nc1ncc([N+](=O)[O-])s1 | inactive: -12.9

Quoted at random: 2 compounds from above.
SMILES | inhibition of mitochondrial O2 consumption rate
COC(=O)Nc1nc2cc(C(=O)c3ccccc3)ccc2[nH]1 | inactive: -6.56
CC(=O)Nc1ccc(NC(=O)c2cc(-c3cc(Cl)ccc3O)[nH]n2)cc1 | inactive: -1.57

Same assay, conditions: 1 µM; injection port (sequential injection order): C

SMILES | inhibition of mitochondrial O2 consumption rate
O=C(Nc1ccc(C(F)(F)F)c(C(F)(F)F)c1)c1cc(Cl)ccc1O | inactive: -42.3
COc1cc(C2=NCCN2)cc2cc(-c3ccc(C4=NCCN4)cc3)oc12 | inactive: -14.1
CCCCS(=O)(=O)Nc1ccc2cnn(C)c2c1 | inactive: 1.74
CN1CCN(S(=O)(=O)c2ccc(-c3ccc4c(Nc5ncc(Cl)cn5)ccnc4c3)cc2)CC1 | inactive: -18.3
O=C(OCc1ccccc1)N1CCC(c2cc(-c3ccncc3)c(-c3ccc(F)cc3)[nH]2)CC1 | inactive: -15.5
Cc1ccc(-c2nc(CN(Cc3ccccn3)C(C)C)cs2)o1 | inactive: -18.2
CC(C)(C)c1ccc(N[C@@H]2CCCC[C@H]2NC(=O)c2ccco2)cc1 | inactive: -16.1
CCC(Sc1nc2ccccc2o1)C(=O)Nc1nnc(C)s1 (stereo not drawn) | inactive: -26.4
CC(C)NCC(=O)Nc1cccc(C(=O)Nc2cccc(C(F)(F)F)c2)c1 | inactive: -19.3
FC(F)(F)c1cc(NCCc2ccccc2)nc(-c2ccccn2)n1 | inactive: -13.1
CC(=O)NCC1CN(c2ccc(-c3ccc(CO)cc3)c(F)c2)C(=O)O1 (stereo not drawn) | inactive: -13.5
CCc1cc(=O)n(C)c(SC(C)C(=O)Nc2ccc(F)cc2)n1 (stereo not drawn) | inactive: -0.986
